# In PubChem BioAssay AID504834 (National Center for Advancing Translational Sciences (NCATS), 2011):
# Screen size: about 320,000 compounds; about 22,000 (6.9%) were called active. This list was built around the results that the source calls inconclusive (neither active nor inactive); the mix of calls is not that of the screen. Calls follow the shape of the dose curve; as a rule, active = well fitted inhibition curve with a large enough effect; inconclusive = small, poorly fitted or top-dose-only effect, or another doubt; inactive = no such curve, though single readings can be large or run the other way. Potencies beside an inconclusive call are fits to weak or partial responses and may not hold up.
# Experiment: Primary qHTS for delayed death inhibitors of the malarial parasite plastid, 96 hour incubation
# Settings: P. falciparum luciferase reporter growth; series mostly up to 28.7 µM
# How it was run: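 Readout is luminescence from an integrated firefly luciferase in P. falciparum. Red cells, 2% hematocrit and 0.05% parasitemia final, were cultured with compound through two parasite generations (96 hours) at 37 C, 5% CO2.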
# Potency is read from the fitted curve at half-maximal effect.
row,SMILES,Potency
1,COc1ccc(S(=O)(=O)Nc2ccc(S(=O)(=O)N3CCCCC3)cc2)cc1OC,"inconclusive: 10.4 µM [inhibitor, single point]"
2,COc1cc(/C=C2\SC(=S)N(Nc3ncc(C(F)(F)F)cc3Cl)C2=O)cc(OC)c1OC,"inconclusive: 18.5 µM [inhibitor, single point]"
3,CN(Cc1ccccc1)c1nc2c(c(=O)n(C)c(=O)n2C)n1CCSc1ncccn1,"inconclusive: 10.4 µM [inhibitor, single point]"
4,COc1ccccc1N1CCN(C(=O)c2cn(C)c3ccc(S(=O)(=O)N4CCOCC4)cc3c2=O)CC1,"inconclusive: 11.7 µM [inhibitor, partial curve]"
5,COc1cc(C(=O)N(C)C2CCCN(Cc3ccccc3F)C2)cc(OC)c1OC (stereo not given),"inconclusive: 18.5 µM [inhibitor, single point]"
6,CC(Cc1ccccc1)NC(=O)Cc1ccc([N+](=O)[O-])cc1 (stereo not given),"inconclusive: 18.5 µM [inhibitor, single point]"
7,CCOC(=O)C(NC(=O)c1ccccc1)=C(C)C,inactive
8,O=C(Nc1ccccc1N1CCN(c2ccc(F)cc2)CC1)C1CCCCC1,inactive
9,O=C1CC(C2CCCO2)C(=O)N1c1ccc(Cl)c(Cl)c1 (stereo not given),inactive
10,CN=C1NN=C(c2cc(C)n(-c3c(C)n(C)n(-c4ccccc4)c3=O)c2C)CS1,"inconclusive: 9.28 µM [inhibitor, single point]"
11,CC1CC(C)CN(S(=O)(=O)N2CCCC(C(=O)NCCCN3CCOCC3)C2)C1 (stereo not given),"inconclusive: 9.28 µM [inhibitor, partial curve, poor fit]"
12,COc1ccc(C2=Nn3c(nnc3-c3cccnc3)SC2)cc1,"inconclusive: 11.7 µM [inhibitor, single point]"
13,COc1ccccc1/C=C/C(=O)Nc1ccc2c(c1)CCC2,inactive
14,CCCCOC(=O)Oc1ccc2c(=O)c(Oc3cccc(C)c3)coc2c1,"inconclusive: 11.7 µM [inhibitor, single point]"
15,Cc1noc(C)c1C(=O)N(CC(=O)Nc1ccc(Cl)c(C(F)(F)F)c1)Cc1ccco1,"inconclusive: 18.5 µM [inhibitor, single point]"
16,COc1cc(C(=O)Nc2cc(C)ccn2)ccc1OCC(=O)N1CCOCC1,inactive
17,O=[N+]([O-])c1cc(-c2n(-c3ccccn3)c3ccccc3[n+]2-c2ccccn2)ccc1Cl,"inconclusive: 8.28 µM [inhibitor, partial curve]"
18,COc1cc2c(cc1OC)-c1c3c(cc4c1[C@@H](C2)N(C)CC4)OCO3,"inconclusive: 0.928 µM [inhibitor, full curve, poor fit]"
19,Cc1ccc(-n2nc3c(c2NC(=O)c2cc4ccccc4o2)CS(=O)(=O)C3)cc1,"inconclusive: 5.22 µM [inhibitor, partial curve, poor fit]"
20,CCOC(=O)c1cnc(-n2[nH]c(C)cc2=O)[nH]c1=O,"inconclusive: 8.28 µM [inhibitor, partial curve]"
21,COc1ccc(C(C)C)cc1S(=O)(=O)N1CC(C)OC(C)C1 (stereo not given),inactive
22,CN1CCN(c2nc3c(c(=O)n(C)c(=O)n3C)n2Cc2ccccc2)CC1,inactive
23,CCc1nnc(SCC(=O)Nc2ccc(F)cc2)o1,"inconclusive: 10.4 µM [inhibitor, single point]"

row,SMILES,Potency
1,Nc1nc(N)nc(-c2ccccc2O)n1,"inconclusive: 4.65 µM [inhibitor, partial curve]"
2,CC(C)(C)c1nnc(NC(=O)COc2ccc3c(c2)OCO3)s1,"inconclusive: 10.4 µM [inhibitor, single point]"
3,O=C(Nc1cccc2ncccc12)c1ccc(Br)c([N+](=O)[O-])c1,inactive
4,Cc1cccc(NC(=O)c2ccc3c(c2)CCN3S(C)(=O)=O)c1C,inactive
5,CN(Cc1cnn(Cc2ccccc2)c1)C(=O)c1cccc(S(=O)(=O)N2CCOCC2)c1,"inconclusive: 14.7 µM [inhibitor, single point]"
6,Cc1occc1-c1nnc(SCC(=O)N2CCCCC2C)o1 (stereo not given),inactive
7,Clc1ccc(-c2csc(Nc3ccccc3)[n+]2Cc2ccco2)c(Cl)c1,"inconclusive: 10.4 µM [inhibitor, single point]"
8,NC(=S)NNc1cccc2cccnc12,"inconclusive: 1.04 µM [inhibitor, full curve]"
9,Cc1ccc(Nc2nc(NCCO)c3ccccc3n2)cc1C,"inconclusive: 10.4 µM [inhibitor, single point]"
10,COC(=O)CCCC1=CC2=CC(=O)C(C)(OC(=O)c3cccs3)C(=O)C2=CN1c1cccc(C#N)c1 (stereo not given),"inconclusive: 10.4 µM [inhibitor, single point]"
11,Cc1ccc(N(C(=O)c2snc(C(N)=O)c2N)C(C(=O)NC2CCCC2)c2ccncc2)cc1 (stereo not given),inactive
12,COc1ccc(-c2c(C)oc3c(CN4CCCC(C)C4)c(O)ccc3c2=O)cc1OC (stereo not given),"inconclusive: 9.28 µM [inhibitor, partial curve]"
13,COc1cc(OC)cc(C(=O)NCC(=O)OCC(=O)Nc2ccc3c(c2)OCO3)c1,"inconclusive: 0.415 µM [inhibitor, full curve, poor fit]"
14,CC(=O)Nc1ccc(-c2csc(-c3cccnc3)n2)cc1,inactive
15,COc1cc(OC)c(CNC2CCCCCC2)cc1Br,inactive
16,CCC(=O)Nc1ccc(N2CCC(C)CC2)cc1,active: 10.4 µM
17,COc1ccc(/C=C(/C#N)C(=O)Nc2cccc(C)c2C)cc1C(=O)O,"inconclusive: 4.15 µM [inhibitor, single point]"
18,N/C(=N\OC(=O)Cc1ccc(-c2ccccc2)cc1)c1ccccn1,inactive
19,CC1(C)CC(=O)c2cnc(NC(=O)CSc3nc4ccccc4o3)nc2C1,inactive
20,COc1ccc(C2=NOC(C(=O)N3CCN(c4ccccc4OC)CC3)C2)cc1 (stereo not given),"inconclusive: 13.1 µM [inhibitor, partial curve, poor fit]"
21,COc1ccc(-c2cc3ccccc3n2CC(O)CN2CCCCC2)cc1 (stereo not given),"inconclusive: 11.7 µM [inhibitor, single point]"
22,Cc1cc(=O)n2nc(N3CCCC(C(=O)N4CCc5ccccc54)C3)sc2n1 (stereo not given),"inconclusive: 0.147 µM [inhibitor, full curve, poor fit]"

# 4 neighbouring entries from above:
row,SMILES,Potency
6,CC(Cc1ccccc1)NC(=O)Cc1ccc([N+](=O)[O-])cc1 (stereo not given),"inconclusive: 18.5 µM [inhibitor, single point]"
7,CCOC(=O)C(NC(=O)c1ccccc1)=C(C)C,inactive
8,O=C(Nc1ccccc1N1CCN(c2ccc(F)cc2)CC1)C1CCCCC1,inactive
9,O=C1CC(C2CCCO2)C(=O)N1c1ccc(Cl)c(Cl)c1 (stereo not given),inactive
